Publication PMC9854190

Experiments:
FLAG-arrestin3 [1] = assay: condition: only cells pretreated with 100 nM triciribine for 30 min; co-IP; HEK-293 cells expressing D3R, transfected with FLAG-arrestin3 and HA-USP33; pretreated with 100 nM triciribine (Akt inhibitor) for 30 min, then desensitization induced; FLAG beads; co-IP blotted for HA
FLAG-arrestin3 [2] = assay: co-IP; HEK-293 cells expressing D3R, transfected; treated with vehicle, 30 nM DA or 100 nM quinpirole (once or washed and re-challenged, desensitization protocol); also Con-KD and Mdm2-KD cells; RIPA lysates, anti-M2 FLAG agarose beads overnight at 4 °C; co-IP blotted for HA or importin β1

B1: HA-USP33 (ubiquitin-specific protease 33) (enzyme, UniProt Q8TEY7-2 1-911)
chain: MSAFRNHCPHLDSVGEITKEDLIQKSLGTCQDCKVQGPNLWACLENRCSYVGCGESQVDHSTIHSQETKHYLTVNLTTLRVWCYACSKEVFLDRKLGTQPSLPHVRQPHQIQENSVQDFKIPSNTTLKTPLVAVFDDLDIEADEEDELRARGLTGLKNIGNTCYMNAALQALSNCPPLTQFFLDCGGLARTDKKPAICKSYLKLMTELWHKSRPGSVVPTTLFQGIKTVNPTFRGYSQQDAQEFLRCLMDLLHEELKEQVMEVEEDPQTITTEETMEEDKSQSDVDFQSCESCSNSDRAENENGSRCFSEDNNETTMLIQDDENNSEMSKDWQKEKMCNKINKVNSEGEFDKDRDSISETVDLNNQETVKVQIHSRASEYITDVHSNDLSTPQILPSNEGVNPRLSASPPKSGNLWPGLAPPHKKAQSASPKRKKQHKKYRSVISDIFDGTIISSVQCLTCDRVSVTLETFQDLSLPIPGKEDLAKLHSSSHPTSIVKAGSCGEAYAPQGWIAFFMEYVKRFVVSCVPSWFWGPVVTLQDCLAAFFARDELKGDNMYSCEKCKKLRNGVKFCKVQNFPEILCIHLKRFRHELMFSTKISTHVSFPLEGLDLQPFLAKDSPAQIVTYDLLSVICHHGTASSGHYIAYCRNNLNNLWYEFDDQSVTEVSESTVQNAEAYVLFYRKSSEEAQKERRRISNLLNIMEPSLLQFYISRQWLNKFKTFAEPGPISNNDFLCIHGGVPPRKAGYIEDLVLMLPQNIWDNLYSRYGGGPAVNHLYICHTCQIEAEKIEKRRKTELEIFIRLNRAFQKEDSPATFYCISMQWFREWESFVKGKDGDPPGPIDNTKIAVTKCGNVMLRQGADSGQISEETWNFLQSIYGGGPEVILRPPVVHVDPDILQAEEKIEVETRSL
In the case of B1, the binding (FLAG-arrestin3 [1]) is reported as “no binding” and the binding (FLAG-arrestin3 [2]) is reported as “binds”.

No constants are given. Whether binding was seen depends on the method and setting. Binding seen in cells or lysates may run through a third protein. For some assays here: A result given as binding can be weak or reduced; the word gives no strength. Tags and fused reporters may be left off the sequences shown.
